Test results: paper PMC7384856

Amino acid sequences for entries named in this document (tags omitted). A change or cut given only in a name is not applied to a line headed by its entry.
UniProt Q9W2N5: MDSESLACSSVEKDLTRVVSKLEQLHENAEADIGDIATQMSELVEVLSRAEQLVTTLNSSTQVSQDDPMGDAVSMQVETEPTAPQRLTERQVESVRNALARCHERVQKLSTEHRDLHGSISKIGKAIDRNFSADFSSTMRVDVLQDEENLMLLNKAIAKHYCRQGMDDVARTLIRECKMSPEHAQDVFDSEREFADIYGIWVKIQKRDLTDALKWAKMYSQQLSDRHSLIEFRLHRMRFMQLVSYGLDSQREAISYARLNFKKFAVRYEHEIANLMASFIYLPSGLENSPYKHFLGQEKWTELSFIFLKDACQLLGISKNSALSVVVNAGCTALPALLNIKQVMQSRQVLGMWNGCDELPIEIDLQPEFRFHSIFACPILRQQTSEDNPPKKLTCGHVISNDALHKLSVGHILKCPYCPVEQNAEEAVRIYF
UniProt Q9VWS1: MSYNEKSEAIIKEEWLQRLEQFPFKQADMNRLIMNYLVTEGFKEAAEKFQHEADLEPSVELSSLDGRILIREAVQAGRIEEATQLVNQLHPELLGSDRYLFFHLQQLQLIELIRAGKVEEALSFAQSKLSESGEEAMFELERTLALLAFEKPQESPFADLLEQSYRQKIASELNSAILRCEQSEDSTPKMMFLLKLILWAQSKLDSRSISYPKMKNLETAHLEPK

Experiments:
[1] = target: T1, ME31B-GFP (D. melanogaster) (UniProt P23128); experiment: affinity purification with mass spectrometry; α-GFP immunoprecipitation of ME31B-GFP or Cup-GFP from pre-MZT embryo lysates (1-2 and 2-3 hr after egg laying) in conditions that maintain complex formation; control IgG immunoprecipitation; LC/MS/MS, spectral counts
T1 sequence: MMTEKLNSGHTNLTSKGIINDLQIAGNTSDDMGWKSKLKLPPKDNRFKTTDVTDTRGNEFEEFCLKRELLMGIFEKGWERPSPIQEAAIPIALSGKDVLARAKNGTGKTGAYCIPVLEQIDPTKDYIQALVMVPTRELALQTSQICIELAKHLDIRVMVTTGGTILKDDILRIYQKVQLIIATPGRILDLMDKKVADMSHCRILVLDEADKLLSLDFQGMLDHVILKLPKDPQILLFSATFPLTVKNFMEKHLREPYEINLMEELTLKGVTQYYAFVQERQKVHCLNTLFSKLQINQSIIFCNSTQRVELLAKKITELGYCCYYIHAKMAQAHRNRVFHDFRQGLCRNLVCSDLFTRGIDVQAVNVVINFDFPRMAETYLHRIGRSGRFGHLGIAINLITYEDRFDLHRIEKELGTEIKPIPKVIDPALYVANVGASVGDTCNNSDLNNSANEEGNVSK

[2] = target: T2, Cup-GFP (D. melanogaster) (UniProt Q9VMA3); experiment: as above
T2 sequence: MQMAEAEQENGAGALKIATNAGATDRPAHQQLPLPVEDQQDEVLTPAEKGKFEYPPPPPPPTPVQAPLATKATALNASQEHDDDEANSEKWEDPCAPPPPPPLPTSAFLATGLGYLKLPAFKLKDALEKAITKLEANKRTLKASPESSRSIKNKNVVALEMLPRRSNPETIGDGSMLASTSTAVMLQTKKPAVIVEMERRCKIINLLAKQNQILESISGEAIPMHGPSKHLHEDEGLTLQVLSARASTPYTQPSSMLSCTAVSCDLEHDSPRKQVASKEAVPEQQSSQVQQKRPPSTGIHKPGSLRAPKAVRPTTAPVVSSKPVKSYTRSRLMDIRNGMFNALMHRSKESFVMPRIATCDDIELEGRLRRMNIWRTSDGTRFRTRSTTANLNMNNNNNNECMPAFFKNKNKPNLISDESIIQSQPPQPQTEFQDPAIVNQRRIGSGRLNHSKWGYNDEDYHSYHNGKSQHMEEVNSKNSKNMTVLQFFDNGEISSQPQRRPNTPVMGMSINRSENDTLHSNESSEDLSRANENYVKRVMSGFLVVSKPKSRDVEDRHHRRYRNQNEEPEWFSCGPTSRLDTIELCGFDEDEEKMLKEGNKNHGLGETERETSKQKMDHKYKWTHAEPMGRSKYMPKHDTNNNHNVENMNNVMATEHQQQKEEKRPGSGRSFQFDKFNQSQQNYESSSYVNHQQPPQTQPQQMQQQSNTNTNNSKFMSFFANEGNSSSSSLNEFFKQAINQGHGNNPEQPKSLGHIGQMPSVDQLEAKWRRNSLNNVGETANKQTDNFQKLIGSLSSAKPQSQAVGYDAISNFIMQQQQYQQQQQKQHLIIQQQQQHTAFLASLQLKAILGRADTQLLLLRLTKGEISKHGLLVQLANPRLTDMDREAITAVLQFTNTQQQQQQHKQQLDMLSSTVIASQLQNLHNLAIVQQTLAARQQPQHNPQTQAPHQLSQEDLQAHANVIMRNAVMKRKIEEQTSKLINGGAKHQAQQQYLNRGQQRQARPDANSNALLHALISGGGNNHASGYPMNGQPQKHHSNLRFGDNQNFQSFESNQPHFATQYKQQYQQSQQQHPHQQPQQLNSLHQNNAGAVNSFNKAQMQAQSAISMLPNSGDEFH

Molecule | binding [1] | binding [2]
CG3295 (from UniProt Q9W2N5) | binds | binds
CG6617 (from UniProt Q9VWS1) | binds | binds
Cup (protein, UniProt Q9VMA3 1-1117) MQMAEAEQENGAGALKIATNAGATDRPAHQQLPLPVEDQQDEVLTPAEKGKFEYPPPPPPPTPVQAPLATKATALNASQEHDDDEANSEKWEDPCAPPPPPPLPTSAFLATGLGYLKLPAFKLKDALEKAITKLEANKRTLKASPESSRSIKNKNVVALEMLPRRSNPETIGDGSMLASTSTAVMLQTKKPAVIVEMERRCKIINLLAKQNQILESISGEAIPMHGPSKHLHEDEGLTLQVLSARASTPYTQPSSMLSCTAVSCDLEHDSPRKQVASKEAVPEQQSSQVQQKRPPSTGIHKPGSLRAPKAVRPTTAPVVSSKPVKSYTRSRLMDIRNGMFNALMHRSKESFVMPRIATCDDIELEGRLRRMNIWRTSDGTRFRTRSTTANLNMNNNNNNECMPAFFKNKNKPNLISDESIIQSQPPQPQTEFQDPAIVNQRRIGSGRLNHSKWGYNDEDYHSYHNGKSQHMEEVNSKNSKNMTVLQFFDNGEISSQPQRRPNTPVMGMSINRSENDTLHSNESSEDLSRANENYVKRVMSGFLVVSKPKSRDVEDRHHRRYRNQNEEPEWFSCGPTSRLDTIELCGFDEDEEKMLKEGNKNHGLGETERETSKQKMDHKYKWTHAEPMGRSKYMPKHDTNNNHNVENMNNVMATEHQQQKEEKRPGSGRSFQFDKFNQSQQNYESSSYVNHQQPPQTQPQQMQQQSNTNTNNSKFMSFFANEGNSSSSSLNEFFKQAINQGHGNNPEQPKSLGHIGQMPSVDQLEAKWRRNSLNNVGETANKQTDNFQKLIGSLSSAKPQSQAVGYDAISNFIMQQQQYQQQQQKQHLIIQQQQQHTAFLASLQLKAILGRADTQLLLLRLTKGEISKHGLLVQLANPRLTDMDREAITAVLQFTNTQQQQQQHKQQLDMLSSTVIASQLQNLHNLAIVQQTLAARQQPQHNPQTQAPHQLSQEDLQAHANVIMRNAVMKRKIEEQTSKLINGGAKHQAQQQYLNRGQQRQARPDANSNALLHALISGGGNNHASGYPMNGQPQKHHSNLRFGDNQNFQSFESNQPHFATQYKQQYQQSQQQHPHQQPQQLNSLHQNNAGAVNSFNKAQMQAQSAISMLPNSGDEFH | binds | –
CG7611 (protein, UniProt Q7K0L4 1-630) MQSTSSTSSGSCSRPLEGSTLNSGGSAENVARDGGSGDDSVGIGDENPSGSSAATNGHDSKHNGFIVNNNGSSSRIVDGENNRENTSCSGVQLDKSNQEIIRLIGQYLHDVGLDKSVQTLMLESGCYLEHPSATKFREHVLMGDWSKADSDLKDLEPLIDNGKLATITEMKFILLEQKYLEHLDDGNPLDALHVLRSELTPLQHNITRVHQLSSYMMCSTNQDLYQRAKWEGKGILSRALVMERLQTFMPPSVMMSPRRLRTLLQQAVELQSQHCPCHDMAWETNLETVSLLTDHCCTTDGFPMQTIQILTDHCDEVWFCKFSPDGLKLATGSKDSTVIIWDVDPYKLTLKHRRVLDGQAQLSVSFVSWSPDSKLILVGGTEDSHELYIWNVDDGKLVVKFSQSLEDSLACGAFSRDGARFVCGGQKGQLYLCDLNGTIVDSWEGVRVNSIAFRADNKTILAADNHYRIRGYNFDSPRSDFDILREPHPIMTFSINSADRLALLNVSNQGLHLWDIEDKCLVRRFQGIRQSNFAIHSCFGGVNESFVASGSEDKVVYIWHIKREEPLAKLAGHTKTVNCVSWNPVYPSLLASASDDATVRIWGPKPNGSSATTESDDCSSSSSSSSWNMT | no binding | no binding

Results, then the molecule that gave them:

binding [1] | binding [2] | Molecule
binds | binds | Muskelin (D. melanogaster (endogenous in embryos))
– | binds | RanBPM (protein, UniProt Q4Z8K6 1-962) MENVEEAPPLSSESNSNSNNSSASSSSHQLSQSGAMGAEIAPSTSRSHSHSPTPSPPVPASSHDQPHPDHPSPPLNASETEARENSPHDHSPTPTFHQTAPPPTTSSTAPQRDEREQQQQQEAPPLQQDQQENSPAQDQELHPLLDQQNQEYPAVHQDQQAEQNQELHHIEGLIRHRESQNPEEHPPQASLENRETLGREDTNQEPDEPQVRDPEIEPEAEPPPPLLLEDLDEQDSGSQDLNEQQPPLIIDANAIAETIDANAVERIDDYEDDDEEVDEEEEVVEDRVDRAGEVASVSGAQRLHSVAVLPRYSSASRAPRSSNNNNNNISNHNNNNNNSNSNSLSRRTRHFYSNNGSHFSNDMFPSHNPRSSTQTSSPRVGGRRHHSTPAASSNSPQHQGVDPLRLLYPNVNESETPLPRCWSPHDKCLSIGLSQNNLRVTYKGVGKQHSDAASVRTAYPIPSSCGLYYFEVRIISKGRNGYMGIGLTAQQFRMNRLPGWDKQSYGYHGDDGNSFSSSGNGQTYGPTFTTGDVIGCCVNFVNNTCFYTKNGVDLGIAFRDLPTKLYPTVGLQTPGEEVDANFGQEPFKFDKIVDMMKEMRSNVLRKIDRYPHLLETPENLMNRLVSTYLVHNAFSKTAEAFNGYTNQTFNEDLASIKTRQKIIKLILTGKMSQAIEHTLRSFPGLLENNKNLWFALKCRQFIEMINGADIENVNNKVTATTQTMPTNQTSVIQSTKTFKHSKSGSGNGNVNINQTQQQNNTAIPAVIKPQGGDRPDIKNMLVDDNSNKCVEHDSNSMDVEMEPCQSHSNGGDSSSNGNASAVRNSLDAIDEEMDVDVSPSSRNCGRVIEKILEFGKELSSMGQQLEKENLMTEEERQMLEDAFSLIAYSNPWSSPLGWLLCPSRRESVSTTLNSAILESLNFERRPPLEYLVAHASELIKVIGQHSLGEDAFITIDDVFPQN
– | binds | ME31B (protein, UniProt P23128 1-459) MMTEKLNSGHTNLTSKGIINDLQIAGNTSDDMGWKSKLKLPPKDNRFKTTDVTDTRGNEFEEFCLKRELLMGIFEKGWERPSPIQEAAIPIALSGKDVLARAKNGTGKTGAYCIPVLEQIDPTKDYIQALVMVPTRELALQTSQICIELAKHLDIRVMVTTGGTILKDDILRIYQKVQLIIATPGRILDLMDKKVADMSHCRILVLDEADKLLSLDFQGMLDHVILKLPKDPQILLFSATFPLTVKNFMEKHLREPYEINLMEELTLKGVTQYYAFVQERQKVHCLNTLFSKLQINQSIIFCNSTQRVELLAKKITELGYCCYYIHAKMAQAHRNRVFHDFRQGLCRNLVCSDLFTRGIDVQAVNVVINFDFPRMAETYLHRIGRSGRFGHLGIAINLITYEDRFDLHRIEKELGTEIKPIPKVIDPALYVANVGASVGDTCNNSDLNNSANEEGNVSK

No constants are given. Whether binding was seen depends on the method and setting. Binding seen in cells or lysates may run through a third protein. These calls come from enrichment with a bait or labelling near it, and not all partners need be listed. A no says only that the protein was not detected with the bait. Sequences can lack the tags named with a protein.
